Literature values in patent US20060281735A1, “Antipsychotic combination therapies and compositions of an alpha-2 adrenergic receptor antagonist and an atypical antipsychotic neuroleptic” (priority 2002, published 2006).
For at least one compound, name, drawing or mass did not settle the structure.

System: Wistar rats
Conditions: rat; olanzapine alone; Wadenberg et al., 2001; cited from earlier work

Cc1cc2c(s1)Nc1ccccc1N=C2N1CCN(C)CC1 [olanzapine]
Dose required for effective suppression of CAR, i.e. 80-100%: about 5 mg/kg
